We go through 37 molecules from PubChem BioAssay AID2685 (National Center for Advancing Translational Sciences (NCATS), 2010).

The test can be described thus: qHTS Assay for Lipid Storage Modulators in Drosophila S3 Cells.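 For cell number change: cells counted by Cell Tracker Red CMTPX staining in the red channel.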 Particulars: BODIPY lipid droplet fluorescence, 18-24 h; for cell number change: measured here: cell count max response, cells fed with added oleic acid. An outline of the steps: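 Drosophila S3 cells loaded with oleic acid (400 uM, as added) and compounds at several concentrations; lipid droplets imaged by 488-nm laser-scanning cytometry, 500–530 nm intensity and object ratio to cell channel. Percent activity normalized to 20 uM Triacsin C.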
(qHTS replaces the single test concentration by a dilution series.)

[1] abbreviates: measured here: cell number channel AC50, cells fed with added oleic acid.
The mark [2] stands for this setting: measured here: lipid fluorescence (Fed channel) AC50, cells fed with added oleic acid.

What is called AC50 is the concentration at which the activity in the assay is half-maximal.

Some of the results follow. These are further read-outs of the screen, such as a control signal, another cell line or another target. No call is given for them. Compounds called inactive in the main read-out are mostly missing here. Words in brackets tell the shape of the fitted curve; partial curves, single points and poor fits give uncertain potencies.

Regarding `CS(=O)(=O)NNC(=O)CN1C(=O)C2C3C=CC(C3)C2C1=O` (stereo unspecified), the cell number change was -0.197%. Besides, the AC50 under setting [1] is 6.51 µM [falling, single point]. Also, under setting [2], the AC50 is 6.51 µM [falling, single point].
`Cc1ccc(C(=O)N2CCN(c3ccc(NC(=O)c4cc(C)cc(C)c4)cc3)CC2)cc1`: the cell number change worked out at 39.1%. Under setting [1], the AC50 is 0.184 µM [rising, full curve].
Take `O=S(=O)(NC(=NC1CCCCC1)c1ccccc1F)c1ccccc1`: the cell number change is -22.4%.
On to `Cc1cccc2sc(N(CCN(C)C)C(=O)C3CCN(S(=O)(=O)c4cccs4)CC3)nc12`, for which the cell number change was determined as 119%. Further, the AC50 under setting [1] was 16.4 µM [rising, single point].
`COC(=O)[C@H](Cc1ccccc1)NC(=O)NCCc1ccc(F)cc1`: the cell number change came out at 25.4%.
`COC(=O)c1c(-c2ccccc2)csc1NC1=NS(=O)(=O)c2ccccc21`: the cell number change was -23.6%. For the same molecule, the AC50 under setting [1] was 2.31 µM [falling, full curve, poor fit].
Take `CSc1ccc(/C=C/C(=O)OCC(=O)NC(C)C)cc1`: the cell number change stood at 41.4%. Further, the AC50 under setting [1] is 29.1 µM [rising, single point].
Regarding `COc1ccccc1N=Nc1ccc(N)c(C)c1`, the concentration at half-maximal activity (AC50) under setting [2] was 8.2 µM [falling, partial curve, poor fit].
Consider `Cc1cccc(C)c1OCC(=O)Nn1c(=O)[nH]c2ccccc2c1=O`, for which the cell number change is 83.4%. Moreover, under setting [1], the AC50 is 25.9 µM [rising, partial curve]. Further, under setting [2], the AC50 is 23.1 µM [rising, partial curve].
Regarding `Cc1cc(SCC(=O)c2cccc([N+](=O)[O-])c2)nc(=O)[nH]1`, the cell number change was -8.22%.
Consider `Cc1ccc(C(=O)NCC#N)cc1`, for which the AC50 under setting [1] is 5.8 µM [falling, single point].
Take `CC(C)(C)c1cc(-c2ccccc2)no1`: the cell number change was -17.6%. Besides, the AC50 under setting [2] was 0.461 µM [falling, full curve, poor fit].
As for `O=C(Nc1c2ccccc2nc2ccccc12)C(Cl)(Cl)Cl`, the cell number change came out at 8.05%.
On to `CC1CCCN(C(=O)CSCC(=O)Nc2nc(-c3cccs3)cs2)C1` (stereo unspecified), for which the cell number change was -42.7%. In addition, the AC50 under setting [1] is 20.6 µM [falling, single point]. Besides, the AC50 under setting [2] is 29.1 µM [falling, single point].
Take `CC(C)N(Cc1ccccc1)C(=O)CN1C(=O)COc2ccc(S(=O)(=O)NC3CCCC3)cc21`: the cell number change came out at 15.3%. The AC50 under setting [1] was 0.00461 µM [rising, full curve, poor fit].
Consider `CCOC(=O)CSc1nc2cc(S(=O)(=O)Nc3ccccc3OC)ccc2o1`, for which, under setting [2], the AC50 is 25.9 µM [falling, partial curve].
With `Cc1ccc(S(=O)(=O)N2CCN(C(C)C(=O)Nc3ccccc3-c3ccccc3)CC2)cc1` (stereo unspecified), the cell number change came to 10.8%. In addition, the AC50 under setting [2] is 3.26 µM [rising, single point].
Take `Cc1ccc(SCCC(=O)NC(C(C)C)C(C)C)cc1`: the cell number change is -66.7%. Moreover, the AC50 under setting [1] is 29.1 µM [falling, single point].
In the case of `O=C(CSc1ncnc2ccccc12)Nc1cccc(S(=O)(=O)N2CCCC2)c1`, the AC50 runs as follows: under setting [1], 6.51 µM [rising, single point]; under setting [2], 5.8 µM [rising, single point].
As for `CC(Oc1ccc(Cl)cc1Cl)C(=O)NCCCN(C)C` (stereo unspecified), the cell number change turned out to be 5.42%. Further, the AC50 under setting [2] is 13 µM [rising, single point].
As for `Cc1cc(C)c(NC(=O)CNC(=O)Cc2ccc(S(=O)(=O)N3CCOCC3)s2)c(C)c1`, the cell number change is -37.7%. The AC50 under setting [1] is 29.1 µM [falling, single point]. Further, the AC50 under setting [2] is 4.11 µM [falling, single point].
Consider `NC(=O)CSc1nc(-c2ccccc2Cl)ns1`, for which the AC50 was 6.51 µM [falling, single point] under setting [1] and 4.11 µM [rising, single point] under setting [2].
With `Cn1cnnc1SCc1ccc(C(=O)N/N=C(\CCC(=O)O)c2ccc(C(C)(C)C)cc2)cc1`, the cell number change was 4.6%. Also, under setting [1], the AC50 was 0.651 µM [falling, single point].
As for `Cc1ccc(Cn2nnc3c(=O)[nH]c(C4CCCN(S(=O)(=O)c5ccc(F)cc5)C4)nc32)cc1` (stereo unspecified), under setting [1], the AC50 was 0.00651 µM [rising, full curve, poor fit].
On to `COc1cc(CNc2ccc3[nH]c(=O)[nH]c3c2)ccc1OCc1ccccc1F`, for which the cell number change was -29.7%. In addition, the AC50 under setting [2] is 6.51 µM [falling, single point].
Consider `O=C(NC(=S)Nc1cccc(CO)c1)c1ccc(-c2ccccc2)cc1`, for which the cell number change was 53.7%. Further, the AC50 under setting [1] was 29.1 µM [rising, single point]. The AC50 under setting [2] is 0.82 µM [rising, partial curve].
On to `COc1cc2c(cc1OC)C(c1cc(C)ccc1C)CC(=O)N2` (stereo unspecified), for which the cell number change is -20.9%. For the same molecule, the concentration at half-maximal activity (AC50) under setting [2] is 29.1 µM [falling, single point].
On to `CC1CCCN(C(=O)c2ccc3c(=O)n(C4CCCC4)c(=S)[nH]c3c2)C1` (stereo unspecified), for which the cell number change is -36.4%. For the same molecule, the AC50 under setting [1] is 2.31 µM [falling, partial curve, poor fit]. Besides, the AC50 under setting [2] is 18.4 µM [falling, partial curve, poor fit].
In the case of `Cc1ccc(NC(=O)Cn2c(=O)c3cccn3c3ccccc32)c(C)c1`, the cell number change turned out to be 6.6%.
Consider `Cc1ccc(C2CC(C(F)(F)F)n3nc(C(=O)NCC4CCCO4)cc3N2)cc1` (stereo unspecified), for which the cell number change was 43.3%. The concentration at half-maximal activity (AC50) under setting [1] was 5.17 µM [rising, full curve, poor fit].
On to `C[C@H](NC(=O)[C@H]1N2C(=O)c3ccccc3C2SC1(C)C)C(=O)N1CCC[C@H]1CO` (stereo partly specified), for which the cell number change amounted to 8.09%.
Consider `Cc1ccc(NC(=O)C2CCN(S(=O)(=O)c3c(C)[nH]c(=O)[nH]c3=O)CC2)cc1`, for which the cell number change was -35.2%. Moreover, the concentration at half-maximal activity (AC50) under setting [1] is 0.92 µM [falling, full curve]. Moreover, under setting [2], the concentration at half-maximal activity (AC50) is 0.517 µM [falling, full curve, poor fit].
With `O=[N+]([O-])c1cc(C(F)(F)F)ccc1N1CCN(S(=O)(=O)c2ccc3c(c2)CCCC3)CC1`, the cell number change is -33%. Under setting [1], the AC50 is 4.61 µM [falling, full curve, poor fit]. Besides, under setting [2], the half-maximal activity concentration (AC50) is 25.9 µM [falling, single point].
With `COc1ccc(C(=O)Nc2nc(C)c(C)s2)cc1OC`, the cell number change was -0.849%. Besides, under setting [2], the AC50 is 0.184 µM [rising, full curve].
Consider `CC(=O)NC(NC(C)=O)c1ccc(Br)cc1`, for which the cell number change was -11.1%. The AC50 under setting [1] is 6.51 µM [rising, partial curve, poor fit]. Under setting [2], the AC50 is 0.103 µM [rising, full curve, poor fit].
Turning to `COc1ccc(OCc2n[nH]c(=S)n2N)cc1`, the cell number change stood at 39.3%.
On the same count and under the same terms, the value for `COc1cc(OC)cc(C(=O)Nc2ncn[nH]2)c1` was 5.59%.
